Source: patent US9340616B2, “Methods and compositions for heptameric targeting ligands” (The University of North Carolina at Chapel Hill, priority 2011, dated 2016)
Some entries share one result that the patent states for a list of compounds.

Assay: Heat stability by circular dichroism
Type: physicochemical
Details: CD, ellipticity at 220 nm, 10 mM phosphate buffer, 25° C. to 94° C.

| Molecule | stable up to (temperature) |
| --- | --- |
| PSMA monomer: PSMA-binding peptide WQPDTAHHWATL on a truncated, nonfunctional Sm1 domain lacking the C-terminal 23 residues (protein) MWQPDTAHHWATLGPQPQPKPQPKPEPEPQPQGGMPPRPLDVLNRSLKSPVIVRLKGGREFRGTLDGYDIHMNLVLLDAEEIQNGEVVHHHHHH | up to 90 °C |
| PSMA-Heptamer: AF-Sm1 heptamerization domain fused with the 12 amino-acid PSMA-binding peptide WQPDTAHHWATL, self-assembled heptamer (protein) MWQPDTAHHWATLGPQPQPKPQPKPEPEPQPQGGMPPRPLDVLNRSLKSPVIVRLKGGREFRGTLDGYDIHMNLVLLDAEEIQNGEVVRKVGSVVIRGDTVVFVSPAPGGEHHHHHH | up to 90 °C |
